# This is one part of the list.
# B1: GS7807I-bvu-563-22-563 (Bacteroides vulgatus) (protein)
# chain: IFSSCTDDFEKLNTSNIQVDPADLPFAAQCTEPMTYCYPPQQNMFQFWTNLTIDLYGGYFMTPNGNFTNGDMGENRGHSGGMYENYYLHIFNNTRRIIAQCDASGERGLSGVMRIVQAYGTLMTTDAYGPIPYSSILSGENEVYFEFDSQKDLYKAMLEDLSTAITDISAMGADEIAKLKSFDCWCNGDKDLWVKIANTMKLRMALRLSKRETEAGNAGMNLKAIATEAAQNTLATVNKDILIDKSLENEMWLMFNWGDCGFNANLVTIMSGTKDPRQPLYMTLNTGDIKNEAGTTTVAANSQYLGIRFASGLPAKPNSWGNFSGWIQGNNGSSYSMPLPIMKAAEAYFLLAEAKLRWDIGSESVKNLYENGIRVSMTNELAYRGAYAGIKEYPEGAVDAYINGTSTQIDYTDPIKAELSTPAVNKLSVKWDESASNEEKLERIITQKWLALFPLSTEGWAEQRRTGYPRFFPAFVNESNGAVNTEEGVRRVIYSSQAYDANAKGVEGGIKLLDEENSSKFGISGDKGGTHLWWDNADKGNF
# Experiments:
# Test in all cases: glycan array binding signal (z-score within array); higher = stronger binding
# Conditions in all cases: glycan notation: IUPAC condensed, linker removed
# [1] = biological target: Gal(b1-4)GlcNAc(b1-3)Gal(b1-4)GlcNAc(b1-2)[Gal(b1-4)GlcNAc(b1-3)Gal(b1-4)GlcNAc(b1-6)]Man(a1-6)[Gal(b1-4)GlcNAc(b1-3)Gal(b1-4)GlcNAc(b1-2)Man(a1-3)]Man(b1-4)GlcNAc(b1-4)GlcNAc
# Summary of the method: (§1)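 Arrays were curated from the Consortium for Functional Glycomics database, 3228 in total, and kept only where the protein sequence was available. Binding is expressed as a within-array Z-score. This score was averaged across arrays of the same protein sequence at different concentrations or buffers and across linkers, and negative values can be read as non-binding.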
# [2] = biological target: Gal(b1-4)GlcNAc(b1-3)Gal(b1-4)GlcNAc(b1-2)[Gal(b1-4)GlcNAc(b1-3)Gal(b1-4)GlcNAc(b1-6)]Man(a1-6)[Gal(b1-4)GlcNAc(b1-3)Gal(b1-4)GlcNAc(b1-2)Man(a1-3)]Man(b1-4)GlcNAc(b1-4)[Fuc(a1-6)]GlcNAc
# Summary of the method: as §1
# [3] = biological target: Gal(b1-4)GlcNAc(b1-3)Gal(b1-4)GlcNAc(b1-3)Gal(b1-4)GlcNAc
# Summary of the method: as §1
# [4] = biological target: Gal(b1-4)GlcNAc(b1-3)Gal(b1-4)GlcNAc(b1-3)Gal(b1-4)GlcNAc(b1-2)Man(a1-3)[Gal(b1-4)GlcNAc(b1-3)Gal(b1-4)GlcNAc(b1-3)Gal(b1-4)GlcNAc(b1-2)Man(a1-6)]Man(b1-4)GlcNAc(b1-4)GlcNAc
# Summary of the method: as §1
# [5] = biological target: Gal(b1-4)GlcNAc(b1-3)Gal(b1-4)GlcNAc(b1-3)Gal(b1-4)GlcNAc(b1-2)Man(a1-3)[Gal(b1-4)GlcNAc(b1-3)Gal(b1-4)GlcNAc(b1-3)Gal(b1-4)GlcNAc(b1-2)Man(a1-6)]Man(b1-4)GlcNAc(b1-4)[Fuc(a1-6)]GlcNAc
# Summary of the method: as §1
# [6] = biological target: Gal(b1-4)GlcNAc(b1-3)Gal(b1-4)GlcNAc(b1-3)Gal(b1-4)GlcNAc(b1-2)[Gal(b1-4)GlcNAc(b1-3)Gal(b1-4)GlcNAc(b1-3)Gal(b1-4)GlcNAc(b1-6)]Man(a1-6)[Gal(b1-4)GlcNAc(b1-3)Gal(b1-4)GlcNAc(b1-3)Gal(b1-4)GlcNAc(b1-2)Man(a1-3)]Man(b1-4)GlcNAc(b1-4)[Fuc(a1-6)]GlcNAc
# Summary of the method: as §1
# [7] = biological target: Gal(b1-4)GlcNAc(b1-3)Gal(b1-4)GlcNAc(b1-3)Gal(b1-4)GlcNAc(b1-3)Gal(b1-4)GlcNAc(b1-2)Man(a1-3)[Gal(b1-4)GlcNAc(b1-3)Gal(b1-4)GlcNAc(b1-3)Gal(b1-4)GlcNAc(b1-3)Gal(b1-4)GlcNAc(b1-2)Man(a1-6)]Man(b1-4)GlcNAc(b1-4)GlcNAc
# Summary of the method: as §1
# [8] = biological target: Gal(b1-4)GlcNAc(b1-3)Gal(b1-4)GlcNAc(b1-3)Gal(b1-4)GlcNAc(b1-3)Gal(b1-4)GlcNAc(b1-2)Man(a1-3)[Gal(b1-4)GlcNAc(b1-3)Gal(b1-4)GlcNAc(b1-3)Gal(b1-4)GlcNAc(b1-3)Gal(b1-4)GlcNAc(b1-2)Man(a1-6)]Man(b1-4)GlcNAc(b1-4)[Fuc(a1-6)]GlcNAc
# Summary of the method: as §1
# [9] = biological target: Gal(b1-4)GlcNAc(b1-3)Gal(b1-4)GlcNAc(b1-3)Gal(b1-4)GlcNAc(b1-3)Gal(b1-4)GlcNAc(b1-2)[Gal(b1-4)GlcNAc(b1-3)Gal(b1-4)GlcNAc(b1-3)Gal(b1-4)GlcNAc(b1-3)Gal(b1-4)GlcNAc(b1-6)]Man(a1-6)[Gal(b1-4)GlcNAc(b1-3)Gal(b1-4)GlcNAc(b1-3)Gal(b1-4)GlcNAc(b1-3)Gal(b1-4)GlcNAc(b1-2)Man(a1-3)]Man(b1-4)GlcNAc(b1-4)[Fuc(a1-6)]GlcNAc
# Summary of the method: as §1
# [10] = biological target: Gal(b1-4)GlcNAc(b1-3)Gal(b1-4)GlcNAc(b1-3)Gal(b1-4)GlcNAc(b1-3)Gal(b1-4)GlcNAc(b1-3)Gal(b1-4)GlcNAc(b1-2)Man(a1-3)[Gal(b1-4)GlcNAc(b1-3)Gal(b1-4)GlcNAc(b1-3)Gal(b1-4)GlcNAc(b1-3)Gal(b1-4)GlcNAc(b1-3)Gal(b1-4)GlcNAc(b1-2)Man(a1-6)]Man(b1-4)GlcNAc(b1-4)GlcNAc
# Summary of the method: as §1
# [11] = biological target: Gal(b1-4)GlcNAc(b1-3)Gal(b1-4)GlcNAc(b1-3)Gal(b1-4)GlcNAc(b1-3)Gal(b1-4)GlcNAc(b1-3)Gal(b1-4)GlcNAc(b1-2)Man(a1-3)[Gal(b1-4)GlcNAc(b1-3)Gal(b1-4)GlcNAc(b1-3)Gal(b1-4)GlcNAc(b1-3)Gal(b1-4)GlcNAc(b1-3)Gal(b1-4)GlcNAc(b1-2)Man(a1-6)]Man(b1-4)GlcNAc(b1-4)[Fuc(a1-6)]GlcNAc
# Summary of the method: as §1
# [12] = biological target: Gal(b1-4)GlcNAc(b1-3)Gal(b1-4)GlcNAc(b1-3)Gal(b1-4)GlcNAc(b1-3)Gal(b1-4)GlcNAc(b1-3)Gal(b1-4)GlcNAc(b1-2)[Gal(b1-4)GlcNAc(b1-3)Gal(b1-4)GlcNAc(b1-3)Gal(b1-4)GlcNAc(b1-3)Gal(b1-4)GlcNAc(b1-3)Gal(b1-4)GlcNAc(b1-6)]Man(a1-6)[Gal(b1-4)GlcNAc(b1-3)Gal(b1-4)GlcNAc(b1-3)Gal(b1-4)GlcNAc(b1-3)Gal(b1-4)GlcNAc(b1-3)Gal(b1-4)GlcNAc(b1-2)Man(a1-3)]Man(b1-4)GlcNAc(b1-4)[Fuc(a1-6)]GlcNAc
# Summary of the method: as §1
# [13] = biological target: Gal(b1-4)GlcNAc(b1-3)Gal(b1-4)GlcNAc(b1-3)Gal(b1-4)GlcNAc(b1-3)Gal(b1-4)GlcNAc(b1-3)Gal(b1-4)GlcNAc(b1-3)Gal(b1-4)GlcNAc(b1-2)Man(a1-3)[Gal(b1-4)GlcNAc(b1-3)Gal(b1-4)GlcNAc(b1-3)Gal(b1-4)GlcNAc(b1-3)Gal(b1-4)GlcNAc(b1-3)Gal(b1-4)GlcNAc(b1-3)Gal(b1-4)GlcNAc(b1-2)Man(a1-6)]Man(b1-4)GlcNAc(b1-4)GlcNAc
# Summary of the method: as §1
# [14] = biological target: Gal(b1-4)GlcNAc(b1-3)Gal(b1-4)GlcNAc(b1-3)GalNAc
# Summary of the method: as §1
# [15] = biological target: Gal(b1-4)GlcNAc(b1-3)Gal(b1-4)GlcNAc(b1-3)[Gal(b1-4)GlcNAc(b1-3)Gal(b1-4)GlcNAc(b1-6)]GalNAc
# Summary of the method: as §1
# [16] = biological target: Gal(b1-4)GlcNAc(b1-3)Gal(b1-4)GlcNAc(b1-6)[Gal(b1-3)]GalNAc
# Summary of the method: as §1
# [17] = biological target: Gal(b1-4)GlcNAc(b1-3)Gal(b1-4)[Fuc(a1-3)]GlcNAc(b1-3)Gal(b1-4)[Fuc(a1-3)]GlcNAc
# Summary of the method: as §1
# [18] = biological target: Gal(b1-4)GlcNAc(b1-3)GalNAc
# Summary of the method: as §1
# [19] = biological target: Gal(b1-4)GlcNAc(b1-3)[Fuc(a1-3)GlcNAc(b1-6)]Gal(b1-4)Glc
# Summary of the method: as §1
# [20] = biological target: Gal(b1-4)GlcNAc(b1-3)[Gal(b1-4)GlcNAc(b1-6)]Gal(b1-4)GlcNAc
# Summary of the method: as §1
# [21] = biological target: Gal(b1-4)GlcNAc(b1-3)[GlcNAc(b1-6)]Gal(b1-4)GlcNAc
# Summary of the method: as §1
# [22] = biological target: Gal(b1-4)GlcNAc(b1-6)Gal(b1-4)GlcNAc
# Summary of the method: as §1
# [23] = biological target: Gal(b1-4)GlcNAc(b1-6)GalNAc
# Summary of the method: as §1
# [24] = biological target: Gal(b1-4)GlcNAc(b1-6)[Gal(b1-3)]GalNAc
# Summary of the method: as §1
# [25] = biological target: Gal(b1-4)GlcNAc(b1-6)[Gal(b1-4)GlcNAc(b1-3)]GalNAc
# Summary of the method: as §1
# Gal(b1-4)GlcNAc6P = biological target: Gal(b1-4)GlcNAc6P
# Summary of the method: as §1
# Gal(b1-6)Gal = biological target: Gal(b1-6)Gal
# Summary of the method: as §1
# Gal3S(b1-3)GalNAc = biological target: Gal3S(b1-3)GalNAc
# Summary of the method: as §1
# Gal3S(b1-3)GlcNAc = biological target: Gal3S(b1-3)GlcNAc
# Summary of the method: as §1
# [26] = biological target: Gal3S(b1-3)[Fuc(a1-4)]GlcNAc
# Summary of the method: as §1
binder,measurement,setting,value
B1,glycan array binding signal (z-score),[1],1.71
same,glycan array binding signal (z-score),[2],2.61
same,glycan array binding signal (z-score),[3],-0.304
same,glycan array binding signal (z-score),[4],2.24
same,glycan array binding signal (z-score),[5],1.26
same,glycan array binding signal (z-score),[6],-0.035
same,glycan array binding signal (z-score),[7],0.142
same,glycan array binding signal (z-score),[8],3.21
same,glycan array binding signal (z-score),[9],1.01
same,glycan array binding signal (z-score),[10],1.03
same,glycan array binding signal (z-score),[11],1.92
same,glycan array binding signal (z-score),[12],0.924
same,glycan array binding signal (z-score),[13],1.29
same,glycan array binding signal (z-score),[14],-0.223
same,glycan array binding signal (z-score),[15],1.22
same,glycan array binding signal (z-score),[16],-0.574
same,glycan array binding signal (z-score),[17],-0.131
same,glycan array binding signal (z-score),[18],-0.571
same,glycan array binding signal (z-score),[19],-0.847
same,glycan array binding signal (z-score),[20],-1.34
same,glycan array binding signal (z-score),[21],0.018
same,glycan array binding signal (z-score),[22],-0.242
same,glycan array binding signal (z-score),[23],-0.309
same,glycan array binding signal (z-score),[24],0.439
same,glycan array binding signal (z-score),[25],0.322
same,glycan array binding signal (z-score),Gal(b1-4)GlcNAc6P,0.178
same,glycan array binding signal (z-score),Gal(b1-6)Gal,-0.287
same,glycan array binding signal (z-score),Gal3S(b1-3)GalNAc,-0.03
same,glycan array binding signal (z-score),Gal3S(b1-3)GlcNAc,1.03
same,glycan array binding signal (z-score),[26],-0.195

# 2 entries drawn at random from the list so far:
binder,measurement,setting,value
B1,glycan array binding signal (z-score),[14],-0.223
same,glycan array binding signal (z-score),[24],0.439

# — the supplement of paper PMC8728848
